# Results are given in words; binding and its absence hold for the method and conditions named. In cells and extracts the contact can be indirect. Some results given as binding are weak or reduced against the parent protein; the word gives no strength.
# By UniProt entry, the sequences of proteins in these tests, tags left out.
# UniProt P16495: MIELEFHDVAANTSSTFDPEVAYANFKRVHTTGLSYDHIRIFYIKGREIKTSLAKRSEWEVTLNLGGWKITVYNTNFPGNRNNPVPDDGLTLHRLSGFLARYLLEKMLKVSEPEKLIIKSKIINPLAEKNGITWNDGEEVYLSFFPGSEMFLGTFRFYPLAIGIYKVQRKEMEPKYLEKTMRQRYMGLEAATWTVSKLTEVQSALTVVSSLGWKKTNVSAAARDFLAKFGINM
# UniProt P20470: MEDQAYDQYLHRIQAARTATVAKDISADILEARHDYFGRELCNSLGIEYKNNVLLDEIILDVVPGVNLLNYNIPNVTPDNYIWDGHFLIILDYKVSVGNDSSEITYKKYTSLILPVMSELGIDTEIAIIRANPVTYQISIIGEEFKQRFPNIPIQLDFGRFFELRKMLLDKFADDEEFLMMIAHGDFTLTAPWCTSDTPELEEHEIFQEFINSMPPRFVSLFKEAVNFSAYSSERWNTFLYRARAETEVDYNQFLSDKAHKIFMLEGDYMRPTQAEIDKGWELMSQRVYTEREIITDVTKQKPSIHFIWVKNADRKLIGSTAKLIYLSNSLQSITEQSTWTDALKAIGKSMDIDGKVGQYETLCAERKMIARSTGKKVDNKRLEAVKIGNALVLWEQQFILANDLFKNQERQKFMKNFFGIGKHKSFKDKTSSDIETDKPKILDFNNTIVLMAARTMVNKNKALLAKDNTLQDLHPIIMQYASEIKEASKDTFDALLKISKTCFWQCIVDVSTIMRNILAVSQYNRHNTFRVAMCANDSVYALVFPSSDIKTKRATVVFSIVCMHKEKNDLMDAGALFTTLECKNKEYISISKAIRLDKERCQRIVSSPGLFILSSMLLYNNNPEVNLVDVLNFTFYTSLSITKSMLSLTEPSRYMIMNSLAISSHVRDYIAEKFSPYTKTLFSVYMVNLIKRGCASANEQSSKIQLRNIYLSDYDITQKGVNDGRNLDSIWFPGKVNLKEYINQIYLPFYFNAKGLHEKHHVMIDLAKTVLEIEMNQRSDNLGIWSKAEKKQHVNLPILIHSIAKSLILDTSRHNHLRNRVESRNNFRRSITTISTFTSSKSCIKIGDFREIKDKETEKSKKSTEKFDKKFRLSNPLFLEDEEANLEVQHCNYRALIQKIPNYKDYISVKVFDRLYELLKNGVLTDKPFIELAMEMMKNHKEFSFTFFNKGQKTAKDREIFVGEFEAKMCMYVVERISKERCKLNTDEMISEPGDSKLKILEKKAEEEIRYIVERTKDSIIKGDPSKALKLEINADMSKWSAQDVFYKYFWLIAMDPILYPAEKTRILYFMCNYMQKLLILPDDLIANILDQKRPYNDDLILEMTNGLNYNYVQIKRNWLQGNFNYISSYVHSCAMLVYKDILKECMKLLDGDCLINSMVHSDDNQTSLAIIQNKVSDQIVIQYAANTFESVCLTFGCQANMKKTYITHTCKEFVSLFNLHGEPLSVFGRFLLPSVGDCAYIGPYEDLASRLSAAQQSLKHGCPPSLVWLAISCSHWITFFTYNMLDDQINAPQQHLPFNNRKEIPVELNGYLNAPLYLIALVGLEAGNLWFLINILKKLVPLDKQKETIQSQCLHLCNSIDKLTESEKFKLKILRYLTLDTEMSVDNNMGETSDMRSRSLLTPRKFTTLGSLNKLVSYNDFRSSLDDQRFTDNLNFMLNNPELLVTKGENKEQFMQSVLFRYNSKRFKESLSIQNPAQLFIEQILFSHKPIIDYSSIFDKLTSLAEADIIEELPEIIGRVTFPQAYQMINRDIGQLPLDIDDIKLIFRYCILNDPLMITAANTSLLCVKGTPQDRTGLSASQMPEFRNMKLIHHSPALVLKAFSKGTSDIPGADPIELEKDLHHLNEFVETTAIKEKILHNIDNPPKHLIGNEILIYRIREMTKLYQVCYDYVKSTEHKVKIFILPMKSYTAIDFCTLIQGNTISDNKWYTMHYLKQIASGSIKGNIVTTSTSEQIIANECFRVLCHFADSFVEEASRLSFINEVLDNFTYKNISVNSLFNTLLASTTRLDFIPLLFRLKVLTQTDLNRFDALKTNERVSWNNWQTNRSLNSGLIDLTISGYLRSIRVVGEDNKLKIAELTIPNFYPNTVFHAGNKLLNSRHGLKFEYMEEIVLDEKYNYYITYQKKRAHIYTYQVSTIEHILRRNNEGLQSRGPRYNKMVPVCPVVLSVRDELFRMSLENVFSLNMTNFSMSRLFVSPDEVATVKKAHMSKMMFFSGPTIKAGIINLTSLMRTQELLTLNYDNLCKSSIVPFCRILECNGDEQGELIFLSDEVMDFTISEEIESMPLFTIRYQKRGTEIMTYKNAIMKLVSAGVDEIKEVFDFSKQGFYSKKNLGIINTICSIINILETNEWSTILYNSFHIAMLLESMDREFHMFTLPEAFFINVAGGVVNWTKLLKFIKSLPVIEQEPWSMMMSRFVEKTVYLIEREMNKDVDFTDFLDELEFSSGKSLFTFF
# Molecular target: Bunyamwera virus (BUNV) nucleoprotein (N) (Bunyamwera virus) (UniProt P16495)
# Assay: co-IP; BSR-T7/5 cells infected with wt BUNV or rBUNL4V5, labelled with [35S]methionine, lysed in non-denaturing RIPA buffer (50 mM Tris/HCl pH 7.4, 1 % Triton X-100, 300 mM NaCl, 5 mM EDTA); precipitated with anti-N or anti-V5 antibodies on Protein A-agarose; SDS-PAGE
substance,measurement,value
"Bunyamwera virus (BUNV) L protein, wild type (from UniProt P20470 1-2238)",binding,binds

# Source: PMC2885054
